PubChem BioAssay AID1508587 | Peter MacCallum Cancer Centre – 2020

Screen: 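Knockdowns that add to vemurafenib's cut in melanoma glycolysis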 (follow-up of hits)
Cells: human WM266.4 melanoma cells with a BRAF V600 mutation
Knock-down reagent: single siRNA against human genes, 25 nM
Timing: 96 h
Challenge: vemurafenib 300 nM (about IC25), given 48 h after transfection for 48 h
Measurement: 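Medium lactate read by absorbance over DAPI-counted nuclei; ratio with versus without vemurafenib, set against non-targeting siRNA, averaged over 2 replicates; cell number also recorded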
Direction: lactate per cell, drug vs no drug: higher = less drug-induced drop in lactate per cell; lactate per cell with vemurafenib: higher = more lactate per cell under drug
Rule for the call: 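a duplex is active when its lactate-per-cell ratio with versus without drug falls under 0.55, i.e. 2 SD below non-targeting; a gene is confirmed if 2 or more of 4 duplexes pass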
This is one part, drawn at random, of about 1,600 reagents. In the full data, 623 (39%) were called active. 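Calls are for each duplex; lactate ratios contain extreme outliers.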 Reagents against one gene are numbered here. Not all columns of the deposit are shown.

gene knocked down,siRNA no.,"lactate per cell, drug vs no drug",lactate per cell with vemurafenib,activity call
NAA40,1,0.56,1.14,inactive
NAA40,2,0.56,0.98,inactive
NAA40,3,0.64,1.5,inactive
NAA40,4,0.74,0.96,inactive
CLASRP,1,0.52,0.57,active
CLASRP,2,0.92,2.4,inactive
CLASRP,3,-0.04,-0.04,active
CLASRP,4,0.69,1.34,inactive
ZBTB9,1,0.5,1.4,active
ZBTB9,2,0.64,1.92,inactive
ZBTB9,3,0.66,1.27,inactive
ZBTB9,4,0.74,1.42,inactive
LGALS9C,1,0.71,1.58,inactive
LGALS9C,2,0.53,0.89,active
LGALS9C,3,0.86,1.7,inactive
LGALS9C,4,0.99,3.13,inactive
BTBD10,1,0.53,1.46,active
BTBD10,2,0.42,0.78,active
BTBD10,3,0.58,1.04,inactive
BTBD10,4,0.49,1.37,active
TMEM184A,1,0.56,0.83,inactive
TMEM184A,2,1.07,3.22,inactive
TMEM184A,3,0.71,2.24,inactive
TMEM184A,4,0.57,0.85,inactive
CTHRC1,1,0.75,1.21,inactive
CTHRC1,2,0.1,0.11,active
CTHRC1,3,0.72,2.24,inactive
CTHRC1,4,0.65,0.69,inactive
PM20D2,1,0.67,0.77,inactive
PM20D2,2,0.34,0.4,active
PM20D2,3,0.64,0.78,inactive
PM20D2,4,0.94,1.35,inactive
MLEC,1,0.64,3.89,inactive
MLEC,2,0.7,1.31,inactive
MLEC,3,0.64,1.48,inactive
MLEC,4,0.77,1.05,inactive

Records listed above with an active call, once more:
gene knocked down,siRNA no.,"lactate per cell, drug vs no drug",lactate per cell with vemurafenib,activity call
CLASRP,1,0.52,0.57,active
CLASRP,3,-0.04,-0.04,active
ZBTB9,1,0.5,1.4,active
LGALS9C,2,0.53,0.89,active
BTBD10,1,0.53,1.46,active
BTBD10,2,0.42,0.78,active
BTBD10,4,0.49,1.37,active
CTHRC1,2,0.1,0.11,active
PM20D2,2,0.34,0.4,active
